PubChem BioAssay AID504786 – Drosophila RNAi Screening Center, 2011
The screen tested about 21,000 reagents; this is an unselected part of those that have a named target and a result. 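Primary screen; positive scores mean lost reporter signal, so the sign may be inverted from the usual convention.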 Reagents against one gene are numbered here. Names joined by + are all predicted targets of the reagent. No sequences are given here.

Assay: 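Positive regulators of HIF-driven reporter output in Drosophila cells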 (primary screen)
Cells: Drosophila S2 cells with a stable HIF luciferase reporter
Knock-down reagent: long dsRNA against Drosophila genes, about 0.2 µg dsRNA per well of a 384-well plate
Time to read-out: three days of knock-down, then 20 h of DFO before reading
Treatment: desferrioxamine (DFO) at 100 µM, an iron chelator that mimics hypoxia, for 20 h
Measured: 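Firefly luciferase driven by the mouse ldh-a hypoxia-response element, measured after 20 h of 100 µM DFO; z-scores per plate, higher means more signal lost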
Direction: z-score: higher = stronger loss of HIF reporter signal

After knock-down of l(2)gl (lethal (2) giant larvae) the results were z-score, replicate 1 = -0.2; z-score, replicate 2 = 0.6. After knock-down of CG17260 the results were z-score, replicate 1 = -0.3; z-score, replicate 2 = -0.4. Against MAGE, the entry reads z-score, replicate 1 = 0; z-score, replicate 2 = -0.3. nAChRbeta2 (nicotinic Acetylcholine Receptor beta2) showed z-score, replicate 1 = -0.2; z-score, replicate 2 = -0.5. After knock-down of CG34148 + P5CDh2, the screen gave z-score, replicate 1 = -0.4; z-score, replicate 2 = -0.3. Depletion of Cap-G (Chromosome associated protein G) #1 came out at: z-score, replicate 1 = -0.4; z-score, replicate 2 = -0.2.

Against Cap-G (Chromosome associated protein G) #2 the deposit lists z-score, replicate 1 = -0.4; z-score, replicate 2 = -0.2.

2 entries from above, reformatted:
gene	dsRNA no.	z-score, replicate 1	z-score, replicate 2
nAChRbeta2 (nicotinic Acetylcholine Receptor beta2)	1	-0.2	-0.5
CG34148 + P5CDh2	1	-0.4	-0.3

Further results:
Against Ythdf (YTH N6-methyladenosine RNA binding protein) #1 the deposit lists z-score, replicate 1 = 0.2; z-score, replicate 2 = -0.3. Depletion of Ythdf (YTH N6-methyladenosine RNA binding protein) #2 gave: z-score, replicate 1 = 0; z-score, replicate 2 = -0.8. With knock-down of Blimp-1 the results were z-score, replicate 1 = -0.5; z-score, replicate 2 = -0.7. After knock-down of Plod (procollagen lysyl hydroxylase) #1, the screen gave z-score, replicate 1 = 0; z-score, replicate 2 = -0.5. For Plod (procollagen lysyl hydroxylase) #2 the deposit lists z-score, replicate 1 = -0.2; z-score, replicate 2 = -0.5. Against Cad96Cb (Cadherin 96Cb) #1, the values are z-score, replicate 1 = 0.3; z-score, replicate 2 = -0.4.

Cad96Cb (Cadherin 96Cb) #2 showed z-score, replicate 1 = -0.4; z-score, replicate 2 = -0.2. Silencing of CG10918 resulted in: z-score, replicate 1 = 0.6; z-score, replicate 2 = 0.8. For CG14915, the entry reads z-score, replicate 1 = -0.2; z-score, replicate 2 = 0.3.
